Measurements published in paper PMC8136485, “Were Ancestral Proteins Less Specific?” (Molecular Biology and Evolution, 2021).
Results are given in words; binding and its absence hold for the method and conditions named. Some entries that bind do so weakly or less than the wild type. Sequences can lack the tags named with a protein.

Molecular target: T1, biotinylated human S100A5 (Ser-Asn-Cys N-terminus) (human) (UniProt P33763)
T1 sequence (chain, BMCC-biotin on the single N-terminal Cys (maleimide-thiol reaction)): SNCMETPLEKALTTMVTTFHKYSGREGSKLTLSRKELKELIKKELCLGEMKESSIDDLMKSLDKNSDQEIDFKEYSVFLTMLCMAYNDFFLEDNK
Assay: phage display panning with deep sequencing; 0.01 μM biotin-protein with 5.5×10^11 PFU phage, 2 h room temperature, 50 mM TES, 100 mM NaCl, 2 mM CaCl2, 0.01% Tween-20, pH 7.4; captured on a streptavidin plate; eluted with 5 mM EDTA; with and without 20 μM competitor peptide; E from read …; only the target purified

B1: phage-displayed peptide … (M13 pIII fusion) (peptide)
peptide: EGLDLMSILELIGGGSAE
- binding: binds
